Measurements from patent US9085559B2, “Triazine-aryl-bis-indoles and process for preparation thereof” (COUNCIL OF SCIENTIFIC & INDUSTRIAL RESEARCH, priority 2010, dated 2015).
Some entries share one result that the patent states for a list of compounds. Some compounds share one range, which may span the group rather than tell each member.

Each compound was assayed on PDE-4 (assay: Phosphodiesterase 4 assay ([3H]cAMP SPA), enzyme preparation from rat heart). Conditions: concentrations ranging from 10 μg/mL to 20 μg/mL.
Type: biochemical
Protocol: FIG. 2. […] To examine whether IICT-TA67 inhibits PDE-4 activity in vitro, enzyme preparations were incubated in the absence or presence of different concentrations (1-20 μg/ml) of IICT-TA67 and breakdown of cAMP was monitored by β counter.
Table 1. Measurement of phosphodiesterase (PDE)-4 activity by compounds.
Heart was excised from anesthetized rat and transfer into normal saline solution. […] The homogenate was centrifuged at 500×g for 5 minute at 4° C. Then sup was taken for further centrifuged at 40,000×g for 30 minute (ultra centrifugation). After centrifugation supernatant was collected for phosphodiesterase assay. Protein concentration was estimated and for each assay, 2.5 μg protein (PDE enzyme preparation) was used.
Phosphodiesterase 4 assay: Phosphodiesterase 4 assay was conducted with [^3H] cAMP SPA enzyme assay (GE Amersham, UK) using 2.5 μg enzyme preparation for each well. Into each well 60 μl water, 10 μl assay buffer supplied with the kit, 10 μl compound (inhibitor), 10 μl PDE enzyme or homogenizing buffer (blank) and 10 μl radiolabel led cAMP ([^3H]cAMP, GE Amersham, UK) were added. To check activity of the enzyme without inhibitor 10 μl DMSO was added in place of inhibitor to a separate well. The reaction mixtures were incubated for 30 mi at 30° C. The reaction was stopped by adding 50 μl SPA bead supplied with the kit. It was then mixed well and allowed to stand at room temperature for 20 min. Breakdown of cAMP in each tube was monitored by β counter. The reading in each tube was obtained in counts per minute (CPM). The reading of the blank tube (without enzyme) was subtracted from each tube to normalize the counts. The enzyme activity was calculated by considering the CPM reading without any inhibitor (compound) as 100.
For `COc1cc(C(c2cc3ccccc3[nH]2)c2cc3ccccc3[nH]2)ccc1Oc1nc(NC2CC2)nc(NC2CC2)n1` [Compound 1, 2,2′-[2,2′-4-(4,6-bis-cyclopropylamino)-1,3,5-triazin-2-yl-oxy-3-methoxyphenyl]-methylene-bis-1H-indole], the PDE4 inhibition was 16-73%.
In the case of `COc1cc(C(c2cc3ccccc3[nH]2)c2cc3ccccc3[nH]2)ccc1Oc1nc(Nc2ccccc2)nc(Nc2ccccc2)n1` [Compound 2, 2,2′-[2,2′-4-(4,6-bis-anilino)-1,3,5-triazin-2-yl-oxy-3-methoxyphenyl]-methylene-bis-1H-indole], the PDE4 inhibition is reported as 16-73%.
`COc1cc(C(c2[nH]c3ccccc3c2CC(=O)O)c2[nH]c3ccccc3c2CC(=O)O)ccc1Oc1nc(NC2CC2)nc(NC2CC2)n1` [Compound 3, 2,2′-[2,2′-4-(4,6-bis-cyclopropylamino)-1,3,5-triazin-2-yl-oxy-3-methoxyphenyl]-methylene-bis-(1H-indole-3,3-diyl)-diacetic acid] was tested, and the PDE4 inhibition was 16-73%.
`COc1cc(C(c2[nH]c3ccccc3c2CC(=O)O)c2[nH]c3ccccc3c2CC(=O)O)ccc1Oc1nc(Nc2ccccc2)nc(Nc2ccccc2)n1` [Compound 4, 2,2′-[2,2′-4-(4,6-bis-anilino)-1,3,5-triazin-2-yl-oxy-3-methoxyphenyl]-methylene-bis-(1H-indole-3,3-diyl)-diacetic acid] was tested, and the PDE4 inhibition was 16-73%.
With `COc1ccc(C(c2cc3ccccc3[nH]2)c2cc3ccccc3[nH]2)cc1Oc1nc(NC2CC2)nc(NC2CC2)n1` [Compound 5, 2,2′-[2,2′-3-(4,6-bis-cyclopropylamino)-1,3,5-triazin-2-yl-oxy-4-methoxyphenyl]-methylene-bis-1H-indole] the PDE4 inhibition was 16-73%.
In the case of `COc1ccc(C(c2cc3ccccc3[nH]2)c2cc3ccccc3[nH]2)cc1Oc1nc(Nc2ccccc2)nc(Nc2ccccc2)n1` [Compound 6, 2,2′-[2,2′-3-(4,6-bis-anilino)-1,3,5-triazin-2-yl-oxy-4-methoxyphenyl]-methylene-bis-1H-indole], the PDE4 inhibition is reported as 16-73%.
In the case of `COc1ccc(C(c2[nH]c3ccccc3c2CC(=O)O)c2[nH]c3ccccc3c2CC(=O)O)cc1Oc1nc(NC2CC2)nc(NC2CC2)n1` [Compound 7, 2,2′-[2,2′-3-(4,6-bis-cyclopropylamino)-1,3,5-triazin-2-yl-oxy-4-methoxy-phenyl]-methylene-bis-(1H-indole-3,3-diyl)-diacetic acid], the PDE4 inhibition is reported as 16-73%.
With `COc1ccc(C(c2[nH]c3ccccc3c2CC(=O)O)c2[nH]c3ccccc3c2CC(=O)O)cc1Oc1nc(Nc2ccccc2)nc(Nc2ccccc2)n1` [Compound 8, 2,2′-[2,2′-3-(4,6-bis-anilino)-1,3,5-triazin-2-yl-oxy-4-methoxyphenyl]-methylene-bis-(1H-indole-3,3-diyl)-diacetic acid] the PDE4 inhibition was 16-73%.
